This is an account of results in US20230044037A1 (INTERVET, published 2023).

These are yes or no findings as the source states them, for the method shown. Some binding calls cover weakened binding; strength is not graded here.

The target in assay [1] is T1, canine IL-4 receptor alpha (IL-4Rα), protein used in ELISA and in epitope mapping (canine).
T1 sequence: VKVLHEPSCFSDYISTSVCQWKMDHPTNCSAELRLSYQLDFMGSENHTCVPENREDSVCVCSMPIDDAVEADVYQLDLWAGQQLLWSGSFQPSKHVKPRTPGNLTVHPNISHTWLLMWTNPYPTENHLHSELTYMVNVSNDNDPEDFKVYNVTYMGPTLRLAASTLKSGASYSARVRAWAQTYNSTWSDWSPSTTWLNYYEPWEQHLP
In words: ELISA. (In general: An ELISA detects its analyte on a solid surface through an enzyme-linked reagent.)

Assay [2] shares this target. In words: ELISA (FIG. 3).

B1: c152C1L1-H1 (antibody, V domains shown)
VH: EVQLVESGGDLVKPGGSLRLSCAASGFTFSSYGMSWVRQAPGKGLQWVATISRGGDYTYYPDSVKGRFTISRDNAKNTLYLQMNSLRAEDTAMYYCAKGTLNNRGFACWGQGTLVTVSS
VL: QSVLTQPASVSGSLGQRVTISCKASQNVGTNVAWYQQLPGTSPRTLIYSASYRYSGVPDRFSGSRSGSTATLTISGLQAEDEADYYCQQYNSYPYTFGGGTHLTVLG
For the molecule B1, the binding entry in assay [1] is “binds”.

B2: c152C1L1-H3 (antibody, V domains shown)
VH: EVQLVESGGDLVKPGGSLRLSCAASGFTFSSYGMSWVRQAPDKRLQWVATISRGGDYTYYPDSVKGRFTISRDNAKNTLYLQMNSLRAEDTAMYYCARGTLNNRGFASWGQGTLVTVSS
VL: QSVLTQPASVSGSLGQRVTISCKASQNVGTNVAWYQQLPGTSPRTLIYSASYRYSGVPDRFSGSRSGSTATLTISGLQAEDEADYYCQQYNSYPYTFGGGTHLTVLG
Regarding B2, the binding entry in assay [2] and in assay [1] was “binds” in each case.

B3: c152C1L1-H2 (antibody, V domains shown)
VH: EVQLVESGGDLVKPGGSLRLSCAASGFTFSSYGMSWVRQAPDKRLQWVATISRGGDYTYYPDSVKGRFTISRDNAKNTLYLQMNSLRAEDTAMYYCARGTLNNRGFACWGQGTLVTVSS
VL: QSVLTQPASVSGSLGQRVTISCKASQNVGTNVAWYQQLPGTSPRTLIYSASYRYSGVPDRFSGSRSGSTATLTISGLQAEDEADYYCQQYNSYPYTFGGGTHLTVLG
Regarding B3, in assay [1], the binding entry is “binds”.

B4: c152H11-H3L3 (c152H11VL3-cCLk-s/c152H11VH3-cIgG-Bm) (antibody, V domains shown)
VH: EVQLVESGGDLVKPGGSLRLSCAASGFTFSSYGMSWVRQAPDKRLQWVATISRGGDYTYYPDSVKGRFTISRDNAKNTLYLQMNSLRAEDTAMYYCARGTLNNRGFASWGQGTLVTVSS
VL: EIVMTQSPASLSLSQEEKVTITCKASQNVGTNVAWYQQKPGQAPKLLIYSASYRYSGLPDRFSGSGSGTDFSFTISSLEPEDVAEFFCQQYNSYPYTFGQGTKLEIKR
notes: Caninized anti-canine IL-4R alpha antibody: VH3 heavy chain on modified canine IgG-B (IgG-Bm), kappa light chain L3
Regarding B4, the binding result in assay [2] and in assay [1] was “binds” in each case.
